No constants are given. Whether binding was seen depends on the method and setting. In cells and extracts the contact can be indirect. Binding calls can cover weak binding; strength is not graded here. Sequences can lack the tags named with a protein.
Target: GST-LC3C (ΔG) (human)
Assay: pull-down; GST fusion proteins purified and immobilized on glutathione-sepharose beads; 35S-labelled in vitro translated GFP-tagged proteins diluted 20x in NET-N buffer (20 mM Tris-HCl pH 8.0, 100 mM NaCl, 1 mM EDTA, 0.5% Nonidet P-40), pre-cleared, incubated at least 2 h at 4°C; five washes; SDS-PAGE and autoradiography; only the target purified

binding | Binder
binds | SEEDEVDGWLIIDLPDSYAA (domain or fragment, UniProt Q8IXH6 27-46, [35S]methionine label) [GFP-DOR (aa 27-46), LIR peptide of DOR]
binds | GFP-DOR (human DOR/TP53INP2, full length) (protein, UniProt Q8IXH6 1-220, [35S]methionine label) MFQRLSSLFFSTPSPPEDPDCPRAFVSEEDEVDGWLIIDLPDSYAAPPSPGAAPAPAGRPPPAPSLMDESWFVTPPACFTAEGPGLGPARLQSSPLEDLLIEHPSMSVYVTGSTIVLEPGSPSPLPDAALPDGDLSEGELTPARREPRAARHAAPLPARAALLEKAGQVRRLQRARQRAERHALSAKAVQRQNRARESRPRRSKNQSSFIYQPCQRQFNY
binds | FNEKEDDEWILVDFIDTCTG (domain or fragment, UniProt Q96A56 23-42, [35S]methionine label) [GFP-TP53INP1 (aa 23-42), LIR peptide of TP53INP1]
